The supplement of paper PMC11438910
The list shows a part of the results. Most of these values are background signal.

Key:
Assay in all cases: fluorescence intensity of antibody binding to polysaccharide-coupled beads; higher = stronger binding
[1] = target: pneumococcal polysaccharide Pn47A
[2] = target: pneumococcal polysaccharide Pn47F
[3] = target: pneumococcal polysaccharide Pn48
[4] = target: pneumococcal polysaccharide Pn5
[5] = target: pneumococcal polysaccharide Pn6A
[6] = target: pneumococcal polysaccharide Pn6B
[7] = target: pneumococcal polysaccharide Pn6C
[8] = target: pneumococcal polysaccharide Pn6D
[9] = target: pneumococcal polysaccharide Pn7A
[10] = target: pneumococcal polysaccharide Pn7B
[11] = target: pneumococcal polysaccharide Pn7C
[12] = target: pneumococcal polysaccharide Pn7F
[13] = antibody concentration 2337.65 ng/mL
[14] = antibody concentration 12500 ng/mL
[15] = antibody concentration 0.1 ng/mL
[16] = antibody concentration 0.534724 ng/mL
[17] = antibody concentration 2.8593 ng/mL
[18] = antibody concentration 15.2894 ng/mL
[19] = antibody concentration 81.7561 ng/mL
[20] = antibody concentration 437.17 ng/mL

B1: 3S41.3 (protein)
chain 1: EVQLVESGGGLVQPGGSLRLSCATSGFTFSNYWMYWFRQAPGKGLEWVSTISGSSSNTYYPDSVKGRFTISRDNAKNTLYLQINSLRAEDTAVYYCARRHDHSSGWAFDYWGQGVLVTVSS
chain 2: EIVMTQSPATLSLSPGERATLSCRASQSVGSNLAWYQQKPGQAPKLLIYDASSRATGIPDRFSGSGSGTDFTLTVSSLEPEDVGVYYCQQYNNWKTFGQGTKVEIK
How did the fluorescence intensity [1, 13] turn out when B1 was run?
Its fluorescence intensity is 67.2 MFI.

And the fluorescence intensity [1, 14]?
Its fluorescence intensity is 138 MFI.

What about the fluorescence intensity [2, 15] of the same binder?
Its fluorescence intensity is 11 MFI.

What about the fluorescence intensity [2, 16] of the same binder?
Its fluorescence intensity is 11.2 MFI.

And the fluorescence intensity [2, 17]?
The fluorescence intensity was 10.5 MFI.

And the fluorescence intensity [2, 18]?
Its fluorescence intensity is 12 MFI.

What about the fluorescence intensity [2, 19] of the same binder?
The fluorescence intensity was 14.5 MFI.

What about the fluorescence intensity [2, 20] of the same binder?
Its fluorescence intensity is 39.5 MFI.

And the fluorescence intensity [2, 13]?
Its fluorescence intensity is 338 MFI.

And the fluorescence intensity [2, 14]?
The fluorescence intensity was 704 MFI.

What about the fluorescence intensity [3, 15] of the same binder?
Its fluorescence intensity is 21 MFI.

And the fluorescence intensity [3, 16]?
Its fluorescence intensity is 21.5 MFI.

And the fluorescence intensity [3, 17]?
The fluorescence intensity was 20.2 MFI.

And the fluorescence intensity [3, 18]?
Its fluorescence intensity is 21 MFI.

What about the fluorescence intensity [3, 19] of the same binder?
Its fluorescence intensity is 26 MFI.

What about the fluorescence intensity [3, 20] of the same binder?
The fluorescence intensity was 41.2 MFI.

And the fluorescence intensity [3, 13]?
Its fluorescence intensity is 59.2 MFI.

And the fluorescence intensity [3, 14]?
Its fluorescence intensity is 101 MFI.

What about the fluorescence intensity [4, 15] of the same binder?
The fluorescence intensity was 8 MFI.

What about the fluorescence intensity [4, 16] of the same binder?
Its fluorescence intensity is 9 MFI.

What about the fluorescence intensity [4, 17] of the same binder?
The fluorescence intensity was 8.5 MFI.

And the fluorescence intensity [4, 18]?
The fluorescence intensity was 9 MFI.

And the fluorescence intensity [4, 19]?
The fluorescence intensity was 10.8 MFI.

And the fluorescence intensity [4, 20]?
The fluorescence intensity was 42.5 MFI.

What about the fluorescence intensity [4, 13] of the same binder?
Its fluorescence intensity is 372 MFI.

What about the fluorescence intensity [4, 14] of the same binder?
The fluorescence intensity was 837 MFI.

And the fluorescence intensity [5, 15]?
The fluorescence intensity was 22.5 MFI.

And the fluorescence intensity [5, 16]?
The fluorescence intensity was 19.8 MFI.

And the fluorescence intensity [5, 17]?
The fluorescence intensity was 20.8 MFI.

What about the fluorescence intensity [5, 18] of the same binder?
The fluorescence intensity was 21 MFI.

And the fluorescence intensity [5, 19]?
The fluorescence intensity was 23 MFI.

And the fluorescence intensity [5, 20]?
The fluorescence intensity was 28 MFI.

And the fluorescence intensity [5, 13]?
The fluorescence intensity was 37.5 MFI.

What about the fluorescence intensity [5, 14] of the same binder?
The fluorescence intensity was 68 MFI.

What about the fluorescence intensity [6, 15] of the same binder?
The fluorescence intensity was 17.2 MFI.

What about the fluorescence intensity [6, 16] of the same binder?
Its fluorescence intensity is 19.2 MFI.

What about the fluorescence intensity [6, 17] of the same binder?
Its fluorescence intensity is 17.5 MFI.

And the fluorescence intensity [6, 18]?
Its fluorescence intensity is 17.5 MFI.

And the fluorescence intensity [6, 19]?
The fluorescence intensity was 22.8 MFI.

What about the fluorescence intensity [6, 20] of the same binder?
Its fluorescence intensity is 24.5 MFI.

What about the fluorescence intensity [6, 13] of the same binder?
The fluorescence intensity was 35.8 MFI.

And the fluorescence intensity [6, 14]?
The fluorescence intensity was 66.5 MFI.

What about the fluorescence intensity [7, 15] of the same binder?
The fluorescence intensity was 15 MFI.

And the fluorescence intensity [7, 16]?
Its fluorescence intensity is 17.5 MFI.

What about the fluorescence intensity [7, 17] of the same binder?
Its fluorescence intensity is 16 MFI.

And the fluorescence intensity [7, 18]?
The fluorescence intensity was 17.5 MFI.

And the fluorescence intensity [7, 19]?
The fluorescence intensity was 33 MFI.

What about the fluorescence intensity [7, 20] of the same binder?
Its fluorescence intensity is 53.8 MFI.

And the fluorescence intensity [7, 13]?
Its fluorescence intensity is 88.2 MFI.

And the fluorescence intensity [7, 14]?
The fluorescence intensity was 166 MFI.

And the fluorescence intensity [8, 15]?
The fluorescence intensity was 16 MFI.

And the fluorescence intensity [8, 16]?
The fluorescence intensity was 16.2 MFI.

What about the fluorescence intensity [8, 17] of the same binder?
Its fluorescence intensity is 16 MFI.

What about the fluorescence intensity [8, 18] of the same binder?
Its fluorescence intensity is 18 MFI.

And the fluorescence intensity [8, 19]?
Its fluorescence intensity is 19 MFI.

And the fluorescence intensity [8, 20]?
The fluorescence intensity was 19 MFI.

What about the fluorescence intensity [8, 13] of the same binder?
The fluorescence intensity was 24 MFI.

What about the fluorescence intensity [8, 14] of the same binder?
The fluorescence intensity was 50.5 MFI.

And the fluorescence intensity [9, 15]?
The fluorescence intensity was 20.5 MFI.

What about the fluorescence intensity [9, 16] of the same binder?
The fluorescence intensity was 19.8 MFI.

And the fluorescence intensity [9, 17]?
The fluorescence intensity was 18.5 MFI.

And the fluorescence intensity [9, 18]?
Its fluorescence intensity is 21.2 MFI.

And the fluorescence intensity [9, 19]?
Its fluorescence intensity is 22.5 MFI.

What about the fluorescence intensity [9, 20] of the same binder?
The fluorescence intensity was 70.5 MFI.

And the fluorescence intensity [9, 13]?
Its fluorescence intensity is 582 MFI.

And the fluorescence intensity [9, 14]?
Its fluorescence intensity is 1840 MFI.

And the fluorescence intensity [10, 15]?
The fluorescence intensity was 16.5 MFI.

What about the fluorescence intensity [10, 16] of the same binder?
Its fluorescence intensity is 15 MFI.

And the fluorescence intensity [10, 17]?
The fluorescence intensity was 15 MFI.

And the fluorescence intensity [10, 18]?
Its fluorescence intensity is 14.8 MFI.

What about the fluorescence intensity [10, 19] of the same binder?
The fluorescence intensity was 16.5 MFI.

What about the fluorescence intensity [10, 20] of the same binder?
Its fluorescence intensity is 21.5 MFI.

What about the fluorescence intensity [10, 13] of the same binder?
Its fluorescence intensity is 55.2 MFI.

And the fluorescence intensity [10, 14]?
Its fluorescence intensity is 270 MFI.

What about the fluorescence intensity [11, 15] of the same binder?
Its fluorescence intensity is 17 MFI.

What about the fluorescence intensity [11, 16] of the same binder?
Its fluorescence intensity is 16.2 MFI.

And the fluorescence intensity [11, 17]?
The fluorescence intensity was 16 MFI.

And the fluorescence intensity [11, 18]?
The fluorescence intensity was 16.8 MFI.

And the fluorescence intensity [11, 19]?
Its fluorescence intensity is 15.8 MFI.

And the fluorescence intensity [11, 20]?
Its fluorescence intensity is 21 MFI.

And the fluorescence intensity [11, 13]?
Its fluorescence intensity is 66 MFI.

What about the fluorescence intensity [11, 14] of the same binder?
The fluorescence intensity was 259 MFI.

What about the fluorescence intensity [12, 15] of the same binder?
The fluorescence intensity was 13.5 MFI.

And the fluorescence intensity [12, 16]?
The fluorescence intensity was 13.5 MFI.

What about the fluorescence intensity [12, 17] of the same binder?
Its fluorescence intensity is 14.5 MFI.

And the fluorescence intensity [12, 18]?
The fluorescence intensity was 14.5 MFI.

What about the fluorescence intensity [12, 19] of the same binder?
The fluorescence intensity was 19.5 MFI.

And the fluorescence intensity [12, 20]?
Its fluorescence intensity is 95 MFI.

What about the fluorescence intensity [12, 13] of the same binder?
The fluorescence intensity was 1000 MFI.

And the fluorescence intensity [12, 14]?
Its fluorescence intensity is 1750 MFI.
